Laboratory results as given in the supplement of paper PMC10849652.
Some of the results follow.

Chains of the proteins cited; added tags and fusions are not shown. Lines headed by an entry give the natural chain unless they say otherwise; changes in a name come on top.
UniProt O60763: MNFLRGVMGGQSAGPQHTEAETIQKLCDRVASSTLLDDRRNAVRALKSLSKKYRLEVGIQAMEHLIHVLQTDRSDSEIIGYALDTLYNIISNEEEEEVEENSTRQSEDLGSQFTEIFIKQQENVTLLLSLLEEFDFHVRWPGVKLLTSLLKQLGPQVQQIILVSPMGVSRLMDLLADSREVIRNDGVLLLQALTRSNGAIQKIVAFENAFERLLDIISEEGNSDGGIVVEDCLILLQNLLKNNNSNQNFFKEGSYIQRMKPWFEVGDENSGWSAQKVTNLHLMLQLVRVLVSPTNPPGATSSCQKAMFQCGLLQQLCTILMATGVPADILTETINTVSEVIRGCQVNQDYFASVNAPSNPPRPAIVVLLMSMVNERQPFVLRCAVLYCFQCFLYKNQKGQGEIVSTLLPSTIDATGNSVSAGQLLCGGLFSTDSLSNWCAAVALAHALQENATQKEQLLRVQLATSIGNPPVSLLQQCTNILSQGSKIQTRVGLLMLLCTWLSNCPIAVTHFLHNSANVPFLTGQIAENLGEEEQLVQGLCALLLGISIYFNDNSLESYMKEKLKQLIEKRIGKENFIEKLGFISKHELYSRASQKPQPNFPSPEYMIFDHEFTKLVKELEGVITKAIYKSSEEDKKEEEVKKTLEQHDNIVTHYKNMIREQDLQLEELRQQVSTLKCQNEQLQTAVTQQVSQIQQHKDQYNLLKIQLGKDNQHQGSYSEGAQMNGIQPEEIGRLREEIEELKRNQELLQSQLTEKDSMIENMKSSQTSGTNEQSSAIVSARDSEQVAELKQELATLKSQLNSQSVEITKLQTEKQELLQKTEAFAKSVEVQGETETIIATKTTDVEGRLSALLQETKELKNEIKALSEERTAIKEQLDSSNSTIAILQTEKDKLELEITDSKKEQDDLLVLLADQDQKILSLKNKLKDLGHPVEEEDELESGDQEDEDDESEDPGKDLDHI
UniProt Q9P0L0: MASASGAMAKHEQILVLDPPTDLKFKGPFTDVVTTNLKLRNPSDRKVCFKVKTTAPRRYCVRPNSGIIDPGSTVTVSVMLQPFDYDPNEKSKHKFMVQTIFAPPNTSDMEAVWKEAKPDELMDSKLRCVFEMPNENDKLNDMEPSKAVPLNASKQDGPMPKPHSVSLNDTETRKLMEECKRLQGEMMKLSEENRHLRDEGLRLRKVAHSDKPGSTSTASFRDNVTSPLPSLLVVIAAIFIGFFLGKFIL
UniProt Q16851: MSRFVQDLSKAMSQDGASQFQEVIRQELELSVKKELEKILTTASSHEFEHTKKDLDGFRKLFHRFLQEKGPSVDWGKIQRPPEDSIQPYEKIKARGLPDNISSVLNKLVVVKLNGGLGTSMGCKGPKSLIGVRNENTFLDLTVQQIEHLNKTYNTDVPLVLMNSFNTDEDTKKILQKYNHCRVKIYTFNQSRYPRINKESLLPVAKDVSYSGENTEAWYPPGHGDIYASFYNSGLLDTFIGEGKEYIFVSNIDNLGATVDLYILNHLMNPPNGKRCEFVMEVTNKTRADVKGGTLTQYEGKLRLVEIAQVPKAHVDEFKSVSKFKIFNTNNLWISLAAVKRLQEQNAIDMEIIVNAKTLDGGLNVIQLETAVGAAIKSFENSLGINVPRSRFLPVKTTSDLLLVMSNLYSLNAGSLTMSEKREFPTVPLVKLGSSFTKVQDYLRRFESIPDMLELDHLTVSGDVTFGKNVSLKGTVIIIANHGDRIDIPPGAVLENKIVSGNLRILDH
UniProt Q969X6: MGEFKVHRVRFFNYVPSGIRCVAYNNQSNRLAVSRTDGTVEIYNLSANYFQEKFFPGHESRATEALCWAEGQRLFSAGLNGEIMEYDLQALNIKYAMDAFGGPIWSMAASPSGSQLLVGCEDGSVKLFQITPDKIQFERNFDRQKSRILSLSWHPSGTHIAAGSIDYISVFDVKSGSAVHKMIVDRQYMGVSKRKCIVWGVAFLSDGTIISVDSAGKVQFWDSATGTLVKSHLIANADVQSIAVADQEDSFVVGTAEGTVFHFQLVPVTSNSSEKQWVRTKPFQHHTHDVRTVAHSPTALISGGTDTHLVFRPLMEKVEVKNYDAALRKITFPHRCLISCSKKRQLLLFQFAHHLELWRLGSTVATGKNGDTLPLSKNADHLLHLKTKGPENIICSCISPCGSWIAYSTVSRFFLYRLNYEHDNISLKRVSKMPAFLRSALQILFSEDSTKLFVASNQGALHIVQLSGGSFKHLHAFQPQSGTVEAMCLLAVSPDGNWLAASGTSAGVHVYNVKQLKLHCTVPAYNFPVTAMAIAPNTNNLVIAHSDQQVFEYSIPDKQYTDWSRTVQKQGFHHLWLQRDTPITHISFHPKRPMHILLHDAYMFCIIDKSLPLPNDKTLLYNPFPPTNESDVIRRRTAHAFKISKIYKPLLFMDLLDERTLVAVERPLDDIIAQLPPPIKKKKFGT
UniProt O94888: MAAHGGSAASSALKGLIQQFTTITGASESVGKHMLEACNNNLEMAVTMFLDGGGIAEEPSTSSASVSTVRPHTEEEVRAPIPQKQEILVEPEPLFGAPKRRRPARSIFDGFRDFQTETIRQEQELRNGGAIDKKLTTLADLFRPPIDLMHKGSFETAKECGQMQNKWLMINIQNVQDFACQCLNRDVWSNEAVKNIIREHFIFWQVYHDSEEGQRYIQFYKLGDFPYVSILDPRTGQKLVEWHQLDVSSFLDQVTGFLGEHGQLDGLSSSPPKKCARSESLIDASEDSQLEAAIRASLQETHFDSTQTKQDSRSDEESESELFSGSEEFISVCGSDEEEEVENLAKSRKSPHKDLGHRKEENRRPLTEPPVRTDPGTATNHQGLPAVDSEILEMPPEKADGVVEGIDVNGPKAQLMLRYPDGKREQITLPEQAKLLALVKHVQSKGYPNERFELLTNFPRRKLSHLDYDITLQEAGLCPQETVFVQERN
UniProt Q14694, whole entry, looked up: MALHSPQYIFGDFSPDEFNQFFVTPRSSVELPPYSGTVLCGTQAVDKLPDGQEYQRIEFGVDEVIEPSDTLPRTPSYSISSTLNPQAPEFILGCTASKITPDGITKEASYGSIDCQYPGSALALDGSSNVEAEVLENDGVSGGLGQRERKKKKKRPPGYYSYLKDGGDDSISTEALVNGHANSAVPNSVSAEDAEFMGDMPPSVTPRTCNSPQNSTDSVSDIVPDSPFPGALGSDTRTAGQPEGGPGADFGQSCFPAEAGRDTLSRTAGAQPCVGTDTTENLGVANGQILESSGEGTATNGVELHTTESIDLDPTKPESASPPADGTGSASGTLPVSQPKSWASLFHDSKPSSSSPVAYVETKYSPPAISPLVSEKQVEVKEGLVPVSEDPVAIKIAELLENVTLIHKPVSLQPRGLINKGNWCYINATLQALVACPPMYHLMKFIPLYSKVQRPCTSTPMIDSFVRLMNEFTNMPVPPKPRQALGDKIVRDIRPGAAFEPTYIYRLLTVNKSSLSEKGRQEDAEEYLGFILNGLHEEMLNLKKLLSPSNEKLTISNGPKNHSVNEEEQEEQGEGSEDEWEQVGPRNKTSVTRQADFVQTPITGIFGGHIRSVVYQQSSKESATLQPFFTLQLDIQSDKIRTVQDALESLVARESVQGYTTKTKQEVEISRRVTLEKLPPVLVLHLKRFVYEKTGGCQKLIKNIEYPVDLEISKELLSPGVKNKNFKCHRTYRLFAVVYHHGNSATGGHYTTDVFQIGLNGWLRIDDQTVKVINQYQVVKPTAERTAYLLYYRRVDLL
UniProt Q9H3U1: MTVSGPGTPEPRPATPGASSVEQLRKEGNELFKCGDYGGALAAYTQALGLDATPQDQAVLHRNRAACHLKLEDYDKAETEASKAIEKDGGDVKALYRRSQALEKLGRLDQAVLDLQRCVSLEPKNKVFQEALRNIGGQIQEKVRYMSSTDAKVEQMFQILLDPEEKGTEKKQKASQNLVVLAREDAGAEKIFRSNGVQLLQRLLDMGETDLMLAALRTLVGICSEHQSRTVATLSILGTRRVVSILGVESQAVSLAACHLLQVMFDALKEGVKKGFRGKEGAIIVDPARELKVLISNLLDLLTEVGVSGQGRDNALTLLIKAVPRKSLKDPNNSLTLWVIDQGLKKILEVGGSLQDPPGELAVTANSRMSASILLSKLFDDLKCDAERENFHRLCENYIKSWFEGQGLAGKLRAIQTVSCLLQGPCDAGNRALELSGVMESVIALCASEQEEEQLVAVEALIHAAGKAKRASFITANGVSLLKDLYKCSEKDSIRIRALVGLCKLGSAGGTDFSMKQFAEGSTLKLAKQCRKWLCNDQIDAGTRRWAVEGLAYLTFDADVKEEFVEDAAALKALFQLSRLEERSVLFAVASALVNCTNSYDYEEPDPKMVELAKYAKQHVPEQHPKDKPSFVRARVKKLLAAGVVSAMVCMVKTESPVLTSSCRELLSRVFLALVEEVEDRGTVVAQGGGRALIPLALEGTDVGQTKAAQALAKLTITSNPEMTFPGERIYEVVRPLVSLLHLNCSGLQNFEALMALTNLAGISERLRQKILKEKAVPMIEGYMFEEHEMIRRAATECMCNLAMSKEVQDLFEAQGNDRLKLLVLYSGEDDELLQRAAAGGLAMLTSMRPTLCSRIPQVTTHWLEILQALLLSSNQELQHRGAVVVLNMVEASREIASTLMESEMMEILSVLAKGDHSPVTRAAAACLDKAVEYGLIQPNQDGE
UniProt Q96LJ8: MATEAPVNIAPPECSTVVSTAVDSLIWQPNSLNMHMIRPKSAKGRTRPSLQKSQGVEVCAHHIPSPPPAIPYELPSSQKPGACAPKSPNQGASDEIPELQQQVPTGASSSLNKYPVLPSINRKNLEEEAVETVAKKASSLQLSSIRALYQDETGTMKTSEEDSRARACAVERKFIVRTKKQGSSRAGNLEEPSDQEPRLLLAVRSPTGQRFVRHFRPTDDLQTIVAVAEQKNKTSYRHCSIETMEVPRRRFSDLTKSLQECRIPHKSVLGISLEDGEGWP
UniProt P55072, whole entry, looked up: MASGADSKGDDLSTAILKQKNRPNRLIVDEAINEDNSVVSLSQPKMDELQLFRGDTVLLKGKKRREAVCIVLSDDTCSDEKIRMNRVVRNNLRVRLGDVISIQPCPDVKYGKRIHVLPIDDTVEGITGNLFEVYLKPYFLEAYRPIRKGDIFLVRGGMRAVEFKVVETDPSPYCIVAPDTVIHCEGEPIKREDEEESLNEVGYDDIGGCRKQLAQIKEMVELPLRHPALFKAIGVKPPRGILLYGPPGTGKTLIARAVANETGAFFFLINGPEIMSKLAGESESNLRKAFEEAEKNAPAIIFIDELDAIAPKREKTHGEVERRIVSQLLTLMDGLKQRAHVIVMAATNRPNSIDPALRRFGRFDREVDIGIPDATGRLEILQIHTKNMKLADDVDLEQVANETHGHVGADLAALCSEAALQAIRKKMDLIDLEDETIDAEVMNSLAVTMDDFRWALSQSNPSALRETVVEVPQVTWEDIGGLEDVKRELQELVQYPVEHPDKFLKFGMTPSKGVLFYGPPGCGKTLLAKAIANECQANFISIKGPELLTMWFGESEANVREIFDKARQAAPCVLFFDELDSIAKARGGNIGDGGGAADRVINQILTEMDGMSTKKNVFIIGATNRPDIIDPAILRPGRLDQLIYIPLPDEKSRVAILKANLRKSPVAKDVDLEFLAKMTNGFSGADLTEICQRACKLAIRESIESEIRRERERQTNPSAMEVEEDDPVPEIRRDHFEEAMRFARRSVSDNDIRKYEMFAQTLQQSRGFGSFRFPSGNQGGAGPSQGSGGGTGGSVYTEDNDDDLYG
UniProt Q04323: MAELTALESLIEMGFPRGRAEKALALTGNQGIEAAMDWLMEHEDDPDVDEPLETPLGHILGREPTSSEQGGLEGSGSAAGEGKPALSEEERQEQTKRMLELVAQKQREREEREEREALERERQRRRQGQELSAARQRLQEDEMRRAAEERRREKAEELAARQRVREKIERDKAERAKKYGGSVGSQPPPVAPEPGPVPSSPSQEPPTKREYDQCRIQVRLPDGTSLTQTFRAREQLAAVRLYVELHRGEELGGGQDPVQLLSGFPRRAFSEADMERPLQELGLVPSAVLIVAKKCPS
UniProt O75379: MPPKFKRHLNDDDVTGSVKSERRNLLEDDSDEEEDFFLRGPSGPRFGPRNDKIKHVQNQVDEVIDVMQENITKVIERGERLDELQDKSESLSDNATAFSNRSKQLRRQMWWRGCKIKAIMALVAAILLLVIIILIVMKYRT
UniProt Q99536: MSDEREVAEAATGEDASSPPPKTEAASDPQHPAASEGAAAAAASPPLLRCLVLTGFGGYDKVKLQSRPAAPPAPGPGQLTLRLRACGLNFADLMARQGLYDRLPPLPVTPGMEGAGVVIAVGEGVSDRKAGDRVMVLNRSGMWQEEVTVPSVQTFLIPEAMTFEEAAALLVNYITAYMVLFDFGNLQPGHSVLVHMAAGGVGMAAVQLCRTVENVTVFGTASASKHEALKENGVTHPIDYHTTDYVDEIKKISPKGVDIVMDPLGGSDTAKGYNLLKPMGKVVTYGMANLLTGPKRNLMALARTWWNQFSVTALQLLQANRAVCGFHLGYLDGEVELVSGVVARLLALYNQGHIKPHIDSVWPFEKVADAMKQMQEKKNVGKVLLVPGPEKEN

Columns and labels:
Assay in all cases: log2 fold change, soluble protein after heating vs DMSO (PISA); higher = thermal stabilisation; K562 cells, 10 uM, 30 min; active = over 0.2 and 3.5 SD of the protein, either way, in both replicates (recomputed)
[1] = compound: CC1=C(C=C(C=C1)NC(=O)C2=CC(=CC=C2)C(C)(C)C#N)NC3=CC4=C(C=C3)N=CN(C4=O)C
How it was run: (§1)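 K562 cells at 2×10^6 cells/mL were exposed to 10 μM compound for 30 min, then aliquots were heated for 3 min across 48°C-58°C, pooled, and extracted in PBS containing 0.5% NP-40 at 4°C. The supernatant after 21,000xg for 90 min was taken as soluble protein and measured by TMTpro 16plex LC-MS/MS with channel sums equalised. Thermal stability is reported relative to control samples, with values from duplicates. Fold changes are given on a log2 scale.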

[2] = compound: CC1=C(C=C(C=C1)NC(=O)C2=CC(=CC=C2)N(C)C)NC(=O)C3=CC=C(C=C3)O
How it was run: as §1

[3] = compound: CC1=CC=C(C=C1)SC2=C3C=C(SC3=CN=C2)C(=O)N
How it was run: as §1

[4] = compound: CC1=NC(=CC=C1)C2=C(N=C(N2)C(C)(C)C)C3=CC4=NC=CN=C4C=C3
How it was run: as §1

Nexturastat A = compound: CCCCN(Cc1ccc(C(=O)NO)cc1)C(=O)Nc1ccccc1 [Nexturastat A]
How it was run: as §1

vemurafenib = compound: CCCS(=O)(=O)Nc1ccc(F)c(C(=O)c2c[nH]c3ncc(-c4ccc(Cl)cc4)cc23)c1F [vemurafenib]
How it was run: as §1

[5] = compound: CCCS(=O)(=O)Nc1ccc(F)c(C(=O)c2c[nH]c3ncc(Cl)cc23)c1F
How it was run: as §1

[6] = compound: CCCc1cc(C)[nH]c(=O)c1CNC(=O)c1cc(-c2ccnc(N3CCN(C)CC3)c2)cc2c1cnn2C(C)C
How it was run: as §1

givinostat = compound: CCN(CC)Cc1ccc2cc(COC(=O)Nc3ccc(C(=O)NO)cc3)ccc2c1 [givinostat]
How it was run: as §1

barasertib = compound: CCN(CCCOc1ccc2c(Nc3cc(CC(=O)Nc4cccc(F)c4)[nH]n3)ncnc2c1)CCOP(=O)(O)O [barasertib]
How it was run: as §1

Measured: log2 fold change

USO1 isoform 2 (UniProt O60763)
inactive: [1] 0.009 | [2] -0.013 | [3] 0.02 | [4] 0.038 | Nexturastat A -0.029 | vemurafenib 0.063 | [5] 0.062 | [6] -0.018 | givinostat 0 | barasertib 0.031

VAPA isoform 2 (UniProt Q9P0L0)
inactive: [1] -0.023 | [2] 0 | [3] -0.011 | [4] 0.022 | Nexturastat A 0.059 | vemurafenib -0.006 | [5] -0.007 | [6] -0.008 | givinostat 0.028 | barasertib 0

UBR5 (UniProt O95071)
inactive: [1] 0.001 | [2] 0.001 | [3] -0.045 | [4] -0.009 | Nexturastat A 0.071 | vemurafenib 0.015 | [5] -0.003 | [6] 0.058 | givinostat 0.05 | barasertib -0.007

UGP2 (UniProt Q16851)
inactive: [1] -0.003 | [2] 0.007 | [3] 0.019 | [4] 0.023 | Nexturastat A -0.068 | vemurafenib -0.005 | [5] 0.028 | [6] 0.002 | givinostat -0.008 | barasertib -0.005

UFM1 (UniProt P61960)
inactive: [1] 0.031 | [2] -0.046 | [3] 0.06 | [4] 0.183 | Nexturastat A -0.04 | vemurafenib 0.07 | [5] 0.041 | [6] -0.083 | givinostat 0.087 | barasertib -0.014

UTP4 (UniProt Q969X6)
inactive: [1] -0.036 | [2] 0.029 | [3] 0.009 | [4] -0.007 | Nexturastat A -0.06 | vemurafenib -0.028 | [5] -0.021 | [6] -0.019 | givinostat -0.033 | barasertib -0.005

UBXN7 (UniProt O94888)
inactive: [1] -0.016 | [2] 0.025 | [3] -0.018 | [4] -0.002 | Nexturastat A -0.031 | vemurafenib 0.049 | [5] 0.023 | [6] 0.019 | givinostat -0.018 | barasertib 0.006

UQCRB (UniProt P14927)
inactive: [1] -0.043 | [2] 0.017 | [3] 0.037 | [4] 0.04 | Nexturastat A -0.021 | vemurafenib -0.027 | [5] -0.059 | [6] -0.025 | givinostat -0.032 | barasertib 0.002

UGDH (UniProt O60701)
inactive: [1] 0.039 | [2] -0.005 | [3] 0.028 | [4] 0.083 | Nexturastat A -0.064 | vemurafenib 0.043 | [5] 0.102 | [6] -0.097 | givinostat 0.031 | barasertib 0.079

VCL (UniProt P18206)
inactive: [1] 0.012 | [2] 0.022 | [3] 0.012 | [4] 0.023 | Nexturastat A -0.091 | vemurafenib 0.005 | [5] -0.015 | [6] 0.008 | givinostat -0.018 | barasertib -0.015

VAMP8 (UniProt Q9BV40)
inactive: [1] -0.02 | [2] 0.018 | [3] 0.021 | [4] 0.016 | Nexturastat A -0.024 | vemurafenib 0.014 | [5] -0.099 | [6] -0.021 | givinostat -0.006 | barasertib 0.02

2 entries picked at random from the list so far:
UQCRB (UniProt P14927)
inactive: [1] -0.043 | [2] 0.017 | [3] 0.037 | [4] 0.04 | Nexturastat A -0.021 | vemurafenib -0.027 | [5] -0.059 | [6] -0.025 | givinostat -0.032 | barasertib 0.002

VAMP8 (UniProt Q9BV40)
inactive: [1] -0.02 | [2] 0.018 | [3] 0.021 | [4] 0.016 | Nexturastat A -0.024 | vemurafenib 0.014 | [5] -0.099 | [6] -0.021 | givinostat -0.006 | barasertib 0.02

More records

USP10 isoform 2 (UniProt Q14694)
inactive: [1] 0.036 | [2] 0.046 | [3] -0.03 | [4] 0.006 | Nexturastat A 0.106 | vemurafenib 0.029 | [5] 0.033 | [6] 0 | givinostat 0.023 | barasertib -0.043

UNC45A (UniProt Q9H3U1)
inactive: [1] 0.025 | [2] -0.003 | [3] 0.031 | [4] -0.035 | Nexturastat A 0.198 | vemurafenib 0.029 | [5] 0.091 | [6] 0.058 | givinostat 0.071 | barasertib 0.094

UQCRC1 (UniProt P31930)
inactive: [1] -0.012 | [2] -0.01 | [3] -0.01 | [4] 0.005 | Nexturastat A -0.017 | vemurafenib -0.02 | [5] -0.011 | [6] -0.007 | givinostat -0.023 | barasertib 0.012

USP7 (UniProt Q93009)
inactive: [1] 0.054 | [2] -0.046 | [3] 0.007 | [4] 0.012 | Nexturastat A 0.015 | vemurafenib 0.036 | [5] 0.068 | [6] 0 | givinostat 0.083 | barasertib 0.073

USP19 isoform 6 (UniProt O94966)
inactive: [1] 0.026 | [2] -0.009 | [3] -0.002 | [4] -0.011 | Nexturastat A -0.05 | vemurafenib 0.061 | [5] 0.014 | [6] 0.032 | givinostat 0.044 | barasertib -0.008

UBXN4 (UniProt Q92575)
inactive: [1] 0.017 | [2] -0.013 | [3] 0.027 | [4] 0.02 | Nexturastat A -0.072 | vemurafenib -0.007 | [5] 0.074 | [6] -0.083 | givinostat 0.001 | barasertib 0.056

UBXN10 (UniProt Q96LJ8)
inactive: [1] 0.007 | [2] -0.026 | [3] -0.071 | [4] 0.037 | Nexturastat A 0.107 | vemurafenib -0.264 | [5] -0.024 | [6] -0.115 | givinostat 0.059 | barasertib -0.068

USP14 (UniProt P54578)
inactive: [1] 0.023 | [2] -0.018 | [3] 0.01 | [4] 0.034 | Nexturastat A -0.069 | vemurafenib 0.021 | [5] 0.093 | [6] 0.012 | givinostat -0.006 | barasertib 0.032

VCP (UniProt P55072)
inactive: [1] -0.007 | [2] 0.016 | [3] -0.012 | [4] -0.008 | Nexturastat A -0.042 | vemurafenib -0.003 | [5] -0.02 | [6] 0.007 | givinostat -0.027 | barasertib -0.018

UBXN1 (UniProt Q04323)
inactive: [1] -0.001 | [2] -0.048 | [3] -0.019 | [4] 0.028 | Nexturastat A -0.034 | vemurafenib 0.026 | [5] -0.001 | [6] -0.042 | givinostat 0.047 | barasertib -0.009

UNC13D isoform 3 (UniProt Q70J99)
inactive: [1] 0.001 | [2] 0.037 | [3] -0.084 | [4] -0.123 | Nexturastat A 0.255 | vemurafenib 0.02 | [5] 0.085 | [6] 0.116 | givinostat 0.214 | barasertib -0.073

UGGT2 (UniProt Q9NYU1)
inactive: [1] -0.08 | [2] -0.057 | [3] -0.101 | [4] 0 | Nexturastat A 0.002 | vemurafenib -0.137 | [5] -0.106 | [6] -0.096 | givinostat 0 | barasertib -0.033

UFD1 isoform 1 (UniProt Q92890)
inactive: [1] 0.02 | [2] -0.025 | [3] 0.037 | [4] 0.106 | Nexturastat A 0.015 | vemurafenib 0 | [5] 0.018 | [6] -0.015 | givinostat 0.032 | barasertib -0.011

VANGL1 (UniProt Q8TAA9)
inactive: [1] 0 | [2] 0.041 | [3] 0.069 | [4] 0.01 | Nexturastat A -0.139 | vemurafenib 0.077 | [5] 0.031 | [6] -0.117 | givinostat -0.04 | barasertib 0.066

UBQLN1 (UniProt Q9UMX0)
inactive: [1] -0.002 | [2] -0.004 | [3] 0.027 | [4] -0.022 | Nexturastat A 0.027 | vemurafenib 0.037 | [5] 0.02 | [6] 0.003 | givinostat -0.002 | barasertib 0.017

VAMP4 (UniProt O75379)
inactive: [1] -0.059 | [2] 0.002 | [3] -0.046 | [4] -0.017 | Nexturastat A 0.174 | vemurafenib 0.022 | [5] -0.056 | [6] -0.031 | givinostat -0.042 | barasertib -0.025

UPRT (UniProt Q96BW1)
inactive: [1] 0.036 | [2] 0.027 | [3] -0.032 | [4] 0.059 | Nexturastat A -0.093 | vemurafenib -0.011 | [5] -0.018 | [6] -0.056 | givinostat 0.022 | barasertib -0.039

UTP14A (UniProt Q9BVJ6)
inactive: [1] 0.028 | [2] 0.008 | [3] -0.002 | [4] -0.068 | Nexturastat A 0.194 | vemurafenib -0.066 | [5] 0.028 | [6] 0.109 | givinostat 0.048 | barasertib -0.112

VAT1 (UniProt Q99536)
inactive: [1] 0.013 | [2] 0.004 | [3] 0.033 | [4] 0.029 | Nexturastat A -0.074 | vemurafenib 0.05 | [5] 0.059 | [6] 0.014 | givinostat 0.045 | barasertib -0.036
